# Reference: PubChem BioAssay AID590 (National Center for Advancing Translational Sciences (NCATS), 2007)
# The whole screen tested about 59,000 compounds, of which about 6,500 (11%) were called active. The shares of active, inactive and inconclusive entries below differ from those in the screen. No stated cut-off is given here; in the data, active means max dye-equivalent concentration above about 10 nM; inconclusive means mostly about 1.1 nM to 9.6 nM; inactive means weaker than that.
# Experiment: qHTS Assay for Spectroscopic Profiling in A350 Spectral Region
# Settings: Compound autofluorescence, 340/450 nm, Alexa 350 dye-equivalents; active compounds read high
row,SMILES,max dye-equivalent concentration
1,COc1ccc(N(CC(=O)Nc2cccc(C)c2)S(=O)(=O)c2c(C)n[nH]c2C)cc1,inactive
2,COc1ccc(N2C(=O)CC(NCc3cccs3)C2=O)cc1 (stereo unspecified),inconclusive: 1.3 nM
3,CCc1nnc(SCC(=O)NC2CCCCC2)nc1CC,inactive
4,COc1ccc(C2C(=O)N(C3CCCCCC3)CC(=O)N2Cc2ccccc2)cc1OC (stereo unspecified),inconclusive: 1.1 nM
5,CC(=O)Nc1cccc2c1OCCO2,active: 110 nM
6,CC1(C)Cc2c(C#N)c(SCC(=O)c3ccccc3)nc(N3CCCC3)c2CO1,inconclusive: 1.2 nM
7,CC(C)(C)C1=Nn2c(nnc2C2CCCCC2)SC1,inactive
8,Cc1cccc(OCC(O)Cn2c(NCCCOC(C)C)nc3c2c(=O)[nH]c(=O)n3C)c1 (stereo unspecified),inconclusive: 2.9 nM
9,Cc1ccc(-c2cc(C(F)F)n3ncc(C(=O)NCc4ccco4)c3n2)cc1,active: 80 nM
10,C=C(C)CSc1nc(N)c2c3c(sc2n1)CCC3,inconclusive: 3.7 nM
11,Oc1ccc([C@@H]2CNCc3sccc32)cc1O,inconclusive: 2.5 nM
12,CCOc1ccc(-n2nc(C(=O)NCCOC)c3ccccc3c2=O)cc1,inconclusive: 3.4 nM
13,CCCc1cc(=O)n2[nH]c(NCc3c(F)cccc3Cl)nc2n1,inactive
14,O=C(Nc1cccc(-c2cn3cccnc3n2)c1)c1ccc(Br)o1,active: 240 nM
15,Cc1noc(C)c1-c1cc(NCc2ccccc2)ncn1,inactive
16,COc1ccc(CCNC(=O)CSc2nnnn2Cc2ccc3c(c2)OCO3)cc1OC,inconclusive: 2.3 nM
17,CCN(CC)CCn1c(=S)[nH]c2cc(Cl)ccc2c1=O,inconclusive: 1.8 nM
18,COC(=O)c1ccc(NC2=CC(=O)CC(C)(C)C2)cc1,inconclusive: 1.7 nM
19,O=C(CN1CCCC1)NCC1(c2ccccc2)CCOCC1,active: 130 nM
20,O=C(Cn1nc(-c2ccc(Cl)cc2)ccc1=O)N1CCN(c2ccccc2)CC1,inactive
21,O=C(O)CCCSc1nc2ccccc2s1,inactive
22,O=S1(=O)N=C2CCCCCN2C(c2ccncc2)N1 (stereo unspecified),inactive
23,Cc1nn2cc(-c3ccc(-c4ccccc4)cc3)nc2s1,inconclusive: 3 nM
24,Cc1ccc(C)c(N2CCN(C(=O)CN(C)S(=O)(=O)c3cnc[nH]3)CC2)c1,inactive

# Some of these compounds in order of molar mass, ascending.
row,SMILES,max dye-equivalent concentration
21,O=C(O)CCCSc1nc2ccccc2s1,inactive
12,CCOc1ccc(-n2nc(C(=O)NCCOC)c3ccccc3c2=O)cc1,inconclusive: 3.4 nM
14,O=C(Nc1cccc(-c2cn3cccnc3n2)c1)c1ccc(Br)o1,active: 240 nM
20,O=C(Cn1nc(-c2ccc(Cl)cc2)ccc1=O)N1CCN(c2ccccc2)CC1,inactive
8,Cc1cccc(OCC(O)Cn2c(NCCCOC(C)C)nc3c2c(=O)[nH]c(=O)n3C)c1 (stereo unspecified),inconclusive: 2.9 nM
16,COc1ccc(CCNC(=O)CSc2nnnn2Cc2ccc3c(c2)OCO3)cc1OC,inconclusive: 2.3 nM

# (further entries)

row,SMILES,max dye-equivalent concentration
1,COC(=O)COc1ccc(S(=O)(=O)Nc2ccc3c(c2)OCO3)cc1,inconclusive: 4.8 nM
2,O=C(Cn1c(C(F)(F)F)nc2ccccc21)NCCN1CCCC1,inconclusive: 1.1 nM
3,CC1(C)CC(=O)c2cc(C(=O)NCc3ccco3)c(=O)n(-c3ccccc3)c2C1,inconclusive: 1.1 nM
4,CCCOc1ccc(C(=O)NCc2cccnc2)cc1,inconclusive: 2.5 nM
5,C=CCOc1ccccc1/C=c1\sc2nc(-c3oc4ccccc4c3C)nn2c1=O,inconclusive: 2 nM
6,Fc1cccc(F)c1C(Nc1nncs1)Nc1nncs1,inactive
7,Cc1cc(NCc2ccccc2Cl)n2nnnc2n1,inconclusive: 2.5 nM
8,Cc1cc(C)n2nc(C(=O)OCCOc3cccc(Br)c3)nc2n1,inconclusive: 1.1 nM
9,CCNc1ncc2nc(C)c(=O)n(CCOC)c2n1,active: 270 nM
10,O=S(=O)(c1ccc(S(=O)(=O)N2CCN(C3CCCCC3)CC2)cc1)N1CCCCCC1,inactive
11,O=C(O)c1ccc2c(c1C(=O)O)C(=O)OC2(c1ccc(O)cc1)c1ccc(O)cc1,inactive
12,Cc1ccccc1-c1nc(N2CCN(C)CC2)c2ccccc2n1,inconclusive: 5.7 nM
13,CCOC(=O)c1c(N)sc2c1CCCC2,inactive
14,Nc1ccc(S(=O)(=O)Nc2ccnn2-c2ccccc2)cc1,inconclusive: 7.7 nM
15,Oc1cc(CN2COc3ccccc32)c(O)cc1CNC1CCCCC1,active: 15 nM
16,COc1ccccc1C(=O)N(Cc1cccs1)C1CCS(=O)(=O)C1 (stereo unspecified),inactive
17,O=c1cc(CO)oc(CN2CCCC2)c1O,inactive
18,Cc1nc2c(C(=O)N3CCCC3)c[nH]n2c(=O)c1Cc1ccc(F)cc1Cl,inconclusive: 1.4 nM
19,N#Cc1nc(-c2ccc(Cl)cc2)oc1N1CCCCC1,active: 160 nM
20,COCC(C)NCc1ccc(C)cc1C (stereo unspecified),inactive
21,Cc1ccc(Cn2c(SCC(N)=O)nc3c2c(=O)n(C)c(=O)n3C)cc1,inconclusive: 1.5 nM
22,NC(=O)CSc1nnc(COc2ccccc2)n1CCc1ccccc1,inconclusive: 1.3 nM
23,N#Cc1cccc(-c2nccc(NCc3cccs3)n2)c1,inactive
24,COc1ccccc1NC(=O)C1CC(=O)OC1c1ccccc1 (stereo unspecified),active: 43 nM

row,SMILES,max dye-equivalent concentration
1,Cc1nnc2sc(-c3ccc(-c4ccc(Cl)c(C(F)(F)F)c4)o3)nn12,active: 1300 nM
2,COc1ccc(Oc2ncc3nc(-c4cccs4)c(=O)n(-c4ccccc4)c3n2)cc1,inconclusive: 7.3 nM
3,COc1ccc2nc(SCc3cnc(C)nc3N)[nH]c2c1,inconclusive: 1.9 nM
4,COc1ccc(S(=O)(=O)N(C)c2ccc(OCC(=O)Nc3cc(C)on3)cc2)cc1,inconclusive: 1.6 nM
5,N[C@H](Cn1ccc(=O)c(O)c1)C(=O)O,inconclusive: 1.7 nM
6,CCC(CC)C(=O)Nc1nnc(-c2cccs2)s1,active: 22 nM
7,FC(F)(F)c1ccc(N2CCN(c3ncnc4c3nnn4Cc3ccccc3)CC2)nc1,inconclusive: 2.6 nM
8,CCOC(=O)C1=C(N)N2C(=O)C(C)SC2=C(C(=O)OCC)C1c1ccccc1 (stereo unspecified),inactive
9,Cc1nonc1NC(=O)c1ccc(Cl)c(S(=O)(=O)N2CCCCC2)c1,inactive
10,CCOC(=O)N1CCN(c2nc(C)c3c(n2)CCCC3=O)CC1,inactive
11,CCCNS(=O)(=O)c1ccc(OCC(=O)N2CCC(C(=O)OCC)CC2)cc1,inconclusive: 1.4 nM
12,Brc1ccc(-c2cnc(-c3cccs3)o2)cc1,active: 39 nM
13,Cc1cc(N2CCN(C3CCCC3)CC2)n2nc(C)c(-c3ccccc3)c2n1,inconclusive: 3.2 nM
14,Nc1nc2[nH]c(=O)cnc2c(=O)[nH]1,active: 220 nM
15,COc1ccccc1NC(=O)C1=C(C)Nc2ncnn2C1c1cccs1 (stereo unspecified),inconclusive: 1.1 nM
16,Clc1ccc(CSc2nnc(-c3ccccn3)n2Cc2ccco2)c(Cl)c1,inactive
17,CCc1ccc(-c2cn(-c3nc(C)cc(C)n3)c(=N)o2)cc1,inactive
18,O=C(CCn1c(=S)[nH]c2ccccc2c1=O)NCCCN1CCCC1=O,inactive
19,CCOC(=O)C1CCN(C(=O)COc2ccc(S(=O)(=O)NC(C)(C)C)cc2)CC1,inconclusive: 1.3 nM
20,CCOC(=O)C1CCCN(C(=O)Cn2cccc2C(=O)c2ccccc2)C1 (stereo unspecified),inconclusive: 1.9 nM
21,O=c1c[n+]([O-])c2ccccc2n1OCc1ccccn1,active: 37 nM
22,O=C(OC1CCCCC1=O)c1cc(=O)c2ccccc2o1 (stereo unspecified),inactive
23,COc1ccccc1-c1nc(NCCN2CCOCC2)c2ccccc2n1,inconclusive: 1.3 nM
24,CN1CCN(c2nc3c(c(=O)[nH]c(=O)n3C)n2Cc2cccc3ccccc23)CC1,inactive

row,SMILES,max dye-equivalent concentration
1,CC(=O)OCc1cc2cc(C)ccc2[nH]c1=O,inconclusive: 3.1 nM
2,O=C(c1ccncc1)N(Cc1ccco1)Cc1cc2ccccc2[nH]c1=O,inconclusive: 2 nM
3,COc1ccc(Cn2c(=O)n(Cc3ccco3)c(=N)c3c4c(sc32)COC(C)(C)C4)cc1,inactive
4,Cc1ccnc(NC(=O)C23CC4CC(CC(C4)C2)C3)c1,inactive
5,Cc1ccc(S(=O)(=O)N(CC(=O)O)Cc2ccccc2)cc1,inconclusive: 1.9 nM
6,COC(=O)c1ccccc1NC(=O)CC#N,inconclusive: 6.4 nM
7,COC(=O)c1nc(N)sc1-c1ccccc1,inconclusive: 2.3 nM
8,CCOC(=O)Cn1nnnc1C(CC)N(Cc1cc2c(C)cc(C)cc2[nH]c1=O)C1CCCC1 (stereo unspecified),inconclusive: 2.2 nM
9,Cc1ccc2[nH]c(=O)c(COC(=O)c3ccccn3)cc2c1,inconclusive: 5.5 nM
10,O=C(CNC(=O)c1ccccc1)NCCc1nc2ccccc2[nH]1,inactive
11,Cc1noc(C)c1C(=O)N1CCC2(CC1)CN(c1ccccn1)C2,inactive
12,COc1ccc(C(=O)N2CCC3(CC2)CN(C(=O)Nc2ccccc2)C3)cc1,inactive
13,c1ccc2c(c1)CCCN2Cc1nnc2n1CCCCC2,inconclusive: 3.1 nM
14,OCCOCCOCCn1c2ccccc2c2ccccc21,inconclusive: 4.4 nM
15,CN(C)C(CN1C(=O)C2CC=CCC2C1=O)c1cn(C)c2ccccc12 (stereo unspecified),inconclusive: 6.6 nM
16,CCOC(=O)C1(C(F)(F)F)N=C(c2cccnc2)OC(N2CCOCC2)=N1 (stereo unspecified),inactive
17,Cc1cccc(CNc2ncncc2-c2ccccc2Cl)c1,inactive
18,CC(C)Sc1nc2sc3c(c2c2nnc(SCC(=O)NCc4ccco4)n12)CCCC3,inconclusive: 4.1 nM
19,Cc1cc2cc3c(cc2nc1SCC(=O)N1CCN(C(=O)c2ccco2)CC1)OCO3,inactive
20,CC(C)NC[C@H](O)c1cc(O)cc(O)c1,inconclusive: 2.3 nM
21,COc1ccc(-c2nc3cnc(Nc4cccc(OC)c4)nc3n(Cc3cccs3)c2=O)cc1,inactive
22,CSc1nc2[nH]c3c(c2c2nncn12)CC(C)(C)OC3,inconclusive: 9.1 nM
23,CN1CCc2ccccc2[C@@H]1Cc1ccccc1NC(=O)c1sc2ccccc2c1Cl,inactive
24,OC1(c2cccc(C(F)(F)F)c2)CCN(c2ncnc3c2[nH]c2ccccc23)CC1,inconclusive: 1.7 nM
